Consider 1 molecule from paper doi:10.1101/2022.05.07.491033.

The chains behind the UniProt entries cited, without tags or fusion partners. Residues count along the entry.
UniProt Q63604, residues 32-821: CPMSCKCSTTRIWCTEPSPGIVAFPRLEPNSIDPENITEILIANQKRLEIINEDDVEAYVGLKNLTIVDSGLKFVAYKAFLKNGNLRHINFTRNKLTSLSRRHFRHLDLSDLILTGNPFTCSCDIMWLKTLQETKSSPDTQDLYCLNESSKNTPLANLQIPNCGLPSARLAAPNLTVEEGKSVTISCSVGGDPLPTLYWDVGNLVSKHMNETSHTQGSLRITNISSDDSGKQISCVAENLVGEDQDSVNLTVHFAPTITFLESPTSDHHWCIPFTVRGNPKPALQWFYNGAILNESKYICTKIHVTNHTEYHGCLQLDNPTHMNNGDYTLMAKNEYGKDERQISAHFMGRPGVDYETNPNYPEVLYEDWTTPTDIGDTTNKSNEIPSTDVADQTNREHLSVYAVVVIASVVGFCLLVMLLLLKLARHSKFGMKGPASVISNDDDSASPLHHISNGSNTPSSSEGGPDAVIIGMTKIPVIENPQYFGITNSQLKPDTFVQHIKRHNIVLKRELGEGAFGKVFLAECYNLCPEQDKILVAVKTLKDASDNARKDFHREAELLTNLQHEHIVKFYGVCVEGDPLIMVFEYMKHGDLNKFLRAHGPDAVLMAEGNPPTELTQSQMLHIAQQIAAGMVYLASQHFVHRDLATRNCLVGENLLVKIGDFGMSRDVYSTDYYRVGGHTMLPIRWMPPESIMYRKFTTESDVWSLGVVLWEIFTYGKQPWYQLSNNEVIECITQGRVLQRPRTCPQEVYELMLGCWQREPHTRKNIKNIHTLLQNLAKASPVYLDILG

These are yes or no findings as the source states them, for the method shown. Binding seen in cells or lysates may run through a third protein. Some binding calls cover weakened binding; strength is not graded here.

For this experiment, the target named is TRKB receptor (endogenous) (rat (endogenous in cultured neurons from Wistar rat embryos)) (UniProt Q63604). Description: co-IP + ELISA.

B1: phospholipase Cγ1 (PLCγ1), endogenous (enzyme, UniProt P10686 1-1290)
chain: MAGVGTPCANGCGPSAPSEAEVLHLCRSLEVGTVMTLFYSKKSQRPERKTFQVKLETRQITWSRGADKIEGSIDIREIKEIRPGKTSRDFDRYQEDPAFRPDQSHCFVILYGMEFRLKTLSLQATSEDEVNMWIKGLTWLMEDTLQAATPLQIERWLRKQFYSVDRNREDRISAKDLKNMLSQVNYRVPNMRFLRERLTDFEQRSGDITYGQFAQLYRSLMYSAQKTMDLPFLETNTLRTGERPELCQVSLSEFQQFLLEYQGELWAVDRLQVQEFMLSFLRDPLREIEEPYFFLDELVTFLFSKENSVWNSQLDAVCPETMNNPLSHYWISSSHNTYLTGDQFSSESSLEAYARCLRMGCRCIELDCWDGPDGMPVIYHGHTLTTKIKFSDVLHTIKEHAFVASEYPVILSIEDHCSIAQQRNMAQHFRKVLGDTLLTKPVDIAADGLPSPNQLKRKILIKHKKLAEGSAYEEVPTSVMYSENDISNSIKNGILYLEDPVNHEWYPHYFVLTSSKIYYSEETSSDQGNEDEEEPKEASGSTELHSSEKWFHGKLGAGRDGRHIAERLLTEYCIETGAPDGSFLVRESETFVGDYTLSFWRNGKVQHCRIHSRQDAGTPKFFLTDNLVFDSLYDLITHYQQVPLRCNEFEMRLSEPVPQTNAHESKEWYHASLTRAQAEHMLMRVPRDGAFLVRKRNEPNSYAISFRAEGKIKHCRVQQEGQTVMLGNSEFDSLVDLISYYEKHPLYRKMKLRYPINEEALEKIGTAEPDYGALYEGRNPGFYVEANPMPTFKCAVKALFDYKAQREDELTFTKSAIIQNVEKQDGGWWRGDYGGKKQLWFPSNYVEEMINPAILEPEREHLDENSPLGDLLRGVLDVPACQIAIRPEGKNNRLFVFSISMPSVAQWSLDVAADSQEELQDWVKKIREVAQTADARLTEGKMMERRKKIALELSELVVYCRPVPFDEEKIGTERACYRDMSSFPETKAEKYVNKAKGKKFLQYNRLQLSRIYPKGQRLDSSNYDPLPMWICGSQLVALNFQTPDKPMQMNQALFMAGGHCGYVLQPSTMRDEAFDPFDKSSLRGLEPCVICIEVLGARHLPKNGRGIVCPFVEIEVAGAEYDSTKQKTEFVVDNGLNPVWPAKPFHFQISNPEFAFLRFVVYEEDMFSDQNFLAQATFPVKGLKTGYRAVPLKNNYSEDLELASLLIKIDIFPAKENGDLSPFSGTSLRERASDASSQLFHVRAREGSFEARYQQPFEDFRISQEHLADHFDSRERRAPRRTRVNGDNRL
Consider B1, for which the binding entry was “binds”.
